Experimental data taken from patent US20180153993A1, “COMPOSITIONS AND METHODS FOR TREATMENT AND PREVENTION OF CARDIOVASCULAR DISEASES” (The Chinese University of Hong Kong, priority 2016, published 2018).

System: ApoE−/− mice
Experiment: Oral administration of MnCl2 in ApoE-/- mice on Western diet, Oil Red O staining of atherosclerotic plaques
Type: in vivo, mouse
Conditions: Western diet 12 weeks
Protocol: ApoE^−/− mice (male, 12 weeks old) were fed a Western diet, and MnCl2 was administered through voluntary water consumption. Water consumption rate was predetermined by monitoring the volume of water remained. MnCl2 was supplemented to drinking water to achieve 5 mg/kg body weight. Mice body weight and water consumption were adjusted weekly to adapt to the change of body weight and water consumption. After feeding on the Western diet for 3 months, the mice were killed and the atherosclerotic plaque formation was determined by Oil Red O staining.
The ApoE^−/− mice were killed by CO2 asphyxiation. Mouse aortas were dissected in cold PBS and cut open to expose the atherosclerotic plaques. After fixation in 4% formaldehyde for 16 h at 4° C., the tissues were first rinsed in water for 10 min and then in 60% isopropanol. The aortas were stained with Oil Red O for 15 min with gentle shaking, and rinsed again in 60% isopropanol and then in water for three rinses. The samples were fixed on the cover slides with the endothelial surface facing upwards. The images were recorded using an HP Scanjet G4050. The plaque areas were determined using National Institutes of Health ImageJ software and calculated by expressing the plaque area relative to the total vascular area.

[Cl][Mn][Cl] [MnCl2]
lipid profile: without affecting lipid profile
superoxide dismutase (SOD) activity in liver: without affecting
